According to paper doi:10.1101/572826:
These are yes or no findings as the source states them, for the method shown. For some assays here: Binding seen in cells or lysates may run through a third protein. Some entries that bind do so weakly or less than the wild type. Sequences can lack the tags named with a protein.

T1: Arabidopsis PAD4 (AtPAD4), LexA BD fusion for yeast two-hybrid (Arabidopsis thaliana (Col)) (UniProt Q9S745)
T1 sequence: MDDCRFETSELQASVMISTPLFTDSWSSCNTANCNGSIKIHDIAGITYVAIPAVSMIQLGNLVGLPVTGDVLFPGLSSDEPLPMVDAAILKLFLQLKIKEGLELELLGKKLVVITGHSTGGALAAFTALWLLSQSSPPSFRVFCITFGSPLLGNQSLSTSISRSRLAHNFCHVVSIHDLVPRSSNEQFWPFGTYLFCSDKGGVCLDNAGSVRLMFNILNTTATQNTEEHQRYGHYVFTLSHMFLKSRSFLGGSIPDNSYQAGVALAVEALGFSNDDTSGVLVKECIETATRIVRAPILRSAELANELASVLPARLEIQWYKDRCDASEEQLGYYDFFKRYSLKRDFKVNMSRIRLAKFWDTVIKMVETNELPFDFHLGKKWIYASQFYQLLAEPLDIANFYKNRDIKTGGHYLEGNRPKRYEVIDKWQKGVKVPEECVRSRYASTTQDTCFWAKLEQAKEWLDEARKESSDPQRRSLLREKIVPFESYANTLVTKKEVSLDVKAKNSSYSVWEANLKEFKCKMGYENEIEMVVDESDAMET

T2: AtEDS1-3xFLAG (pEDS1:gEDS1-3xFLAG) (Arabidopsis thaliana (Col)) (UniProt Q9XF23)
T2 sequence: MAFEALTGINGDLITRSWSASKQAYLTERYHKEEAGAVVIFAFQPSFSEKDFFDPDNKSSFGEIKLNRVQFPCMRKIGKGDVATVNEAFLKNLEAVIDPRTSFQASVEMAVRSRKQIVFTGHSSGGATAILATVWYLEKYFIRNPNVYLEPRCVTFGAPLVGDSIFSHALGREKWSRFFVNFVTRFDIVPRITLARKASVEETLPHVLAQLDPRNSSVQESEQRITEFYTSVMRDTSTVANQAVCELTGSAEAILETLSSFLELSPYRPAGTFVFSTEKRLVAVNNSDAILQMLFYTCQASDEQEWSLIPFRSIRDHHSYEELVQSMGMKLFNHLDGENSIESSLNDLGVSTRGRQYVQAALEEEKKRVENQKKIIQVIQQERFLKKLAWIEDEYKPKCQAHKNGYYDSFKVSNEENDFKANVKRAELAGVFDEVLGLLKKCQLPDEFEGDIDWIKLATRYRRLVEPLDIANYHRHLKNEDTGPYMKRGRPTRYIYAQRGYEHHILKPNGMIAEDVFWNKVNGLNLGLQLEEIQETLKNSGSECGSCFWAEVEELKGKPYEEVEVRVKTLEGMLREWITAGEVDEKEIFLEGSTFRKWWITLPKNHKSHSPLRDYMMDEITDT

B1: Arabidopsis EDS1 (AtEDS1), Gal4 AD fusion for yeast two-hybrid (protein, UniProt Q9XF23 1-623)
chain: T2 sequence
B2: AtPAD4-YFP (35S:AtPAD4-YFP) (protein, UniProt Q9S745 1-541)
chain: T1 sequence

Legend:
[1] = target: T1, Arabidopsis PAD4 (AtPAD4), LexA BD fusion for yeast two-hybrid (Arabidopsis thaliana (Col)); experiment: two-hybrid
[2] = target: T2, AtEDS1-3xFLAG (pEDS1:gEDS1-3xFLAG) (Arabidopsis thaliana (Col)); experiment: co-IP

Row | binding [1] | binding [2] | Binder
1 | binds | – | B1
2 | – | binds | B2
